For the assay, the target named is IκBα (mouse (endogenous in RAW 264.7)) (UniProt Q9Z1E3). Kind of assay: co-IP; cytoplasmic extract of RAW 264.7 cells; IκBα antibody on Dynabeads Protein G, overnight at 4 °C, washed three times with PBS; blots for p65 and HDAC3; basal condition and PPL pretreatment followed by LPS.

The chains behind the UniProt entries cited, without tags or fusion partners.
UniProt Q9Z1E3: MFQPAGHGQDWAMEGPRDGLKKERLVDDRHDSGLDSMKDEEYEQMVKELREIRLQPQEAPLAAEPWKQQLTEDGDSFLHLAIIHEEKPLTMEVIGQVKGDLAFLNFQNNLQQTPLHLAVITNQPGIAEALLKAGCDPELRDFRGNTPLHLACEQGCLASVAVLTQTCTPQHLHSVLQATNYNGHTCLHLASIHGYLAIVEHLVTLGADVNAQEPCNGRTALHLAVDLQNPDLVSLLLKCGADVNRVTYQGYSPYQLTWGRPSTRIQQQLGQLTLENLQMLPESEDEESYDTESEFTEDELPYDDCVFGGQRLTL
UniProt Q04207: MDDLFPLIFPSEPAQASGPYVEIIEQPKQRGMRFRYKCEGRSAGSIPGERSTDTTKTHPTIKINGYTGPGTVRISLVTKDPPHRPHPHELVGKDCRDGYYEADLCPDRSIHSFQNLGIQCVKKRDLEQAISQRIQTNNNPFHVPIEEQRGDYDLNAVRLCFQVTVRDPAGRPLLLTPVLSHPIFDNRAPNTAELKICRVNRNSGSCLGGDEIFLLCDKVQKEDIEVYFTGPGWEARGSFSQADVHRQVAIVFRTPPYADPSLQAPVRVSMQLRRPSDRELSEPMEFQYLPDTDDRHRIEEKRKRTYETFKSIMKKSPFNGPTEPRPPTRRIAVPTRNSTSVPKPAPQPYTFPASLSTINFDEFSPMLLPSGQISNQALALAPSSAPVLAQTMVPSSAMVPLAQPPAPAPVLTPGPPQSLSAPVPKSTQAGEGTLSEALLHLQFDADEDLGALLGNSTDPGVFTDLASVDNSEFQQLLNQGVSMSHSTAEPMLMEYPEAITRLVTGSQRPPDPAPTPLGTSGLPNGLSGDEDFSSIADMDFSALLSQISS

We go through one substance from PMC6954241.

No constants are given. Whether binding was seen depends on the method and setting. Binding seen in cells or lysates may run through a third protein. Some entries that bind do so weakly or less than the wild type.

Consider “p65, a subunit of nuclear factor kappa-light-chain-enhancer of activated B cells (NF-κB p65) (from UniProt Q04207 1-549)”, for which the binding result was “binds”.
